According to patent US20040038944A1, “Compositions and methods of preventing or reducing the risk or incidence of skeletal injuries in horses” (Merck & Co., Inc., priority 2000, published 2004):

System: C-telopeptides (C-Tx)
Settings: below baseline; Groups 2-4 (18.75 mg every 7 days, 37.5 mg every 14 days, 75 mg every 28 days, i.v.); 56 days stall rest; placebo about 75% above baseline
Description: Bone metabolism is monitored using standard techniques, i.e. serum assays to determine levels of markers of bone turnover, bone resorption and bone formation and ultrasound is used to assess changes in bone density.
Materials and Methods: Sixteen healthy adult thoroughbred horses (eight mares and eight male castrates) which had previously been running at pasture for at least 4 months are used.
The horses are randomly allocated to 4 treatment groups of four horses, each containing two mares and two male castrates. Serum samples are collected and ultrasound measurements are taken on three occasions directly before commencement of stall rest. Assays are conducted on the serum samples to determine pre-confinement levels of C-telopeptides (C-Tx; a collagen breakdown product that is a marker of bone resorption); osteocalcin (a marker of bone turnover) and bone specific alkaline phosphatase (a marker of bone formation). Ultrasound is used to measure the speed of transmission of sound waves through the bone.
Stall rest is commenced the day of first treatment. Serum samples are taken twice weekly and ultrasound measurements are taken each 14 days for the 56 days of the study to monitor changes in bone metabolism markers and in bone density relative to pre-confinement values. At the end of the study the horses are returned to the pasture.

## NCCCC(O)(P(=O)(O)O)P(=O)(O)O [alendronate, 4-amino-1-hydroxybutylidene-1,1-bisphosphonic acid monosodium trihydrate]
  marker of bone resorption (C-Tx), change relative to baseline: about 75%
